HELM strings list residues between dots; [ac] is acetyl, [am] amide, other brackets name non-standard units. * marks the point of attachment. Mts = Cc1cc(C)c(S(=O)(=O)*)c(C)c1; Boc = CC(C)(C)OC(=O)*; OBn = c1ccc(CO*)cc1; Bn = c1ccc(C*)cc1
Assay: general procedure: solution-phase peptide synthesis; DCC/HOBt; CDI
[1] = coupling step, monosalt of acetic acid, hydrochloride
[2] = late stage modification step, acetic acid monosalt
[3] = late stage modification step, monosalt of acetic acid, hydrochloride

“Boc-Asp(OBn)-Arg(Z2)-Leu-Asp(OBn)-Ser(Bn)-OBn” gave a step yield [1] of 65%.

In the case of Boc-R(Mts)LD(OBn)S(Bn)-OBn, the step yield [1] is reported as 48%.

Substance PEPTIDE1{R.L.D.S}$$$$V2.0 has a step yield [2] of 82%.

For “PEPTIDE1{[GlcA-EG2-Suc].R.L.D.S}$$$$V2.0”, the step yield [3] was 80%.

“PEPTIDE1{[SulfoOBu].R.L.D.S}$$$$V2.0 [65]” gave a step yield [3] of 59%.

With PEPTIDE1{[dR].L.D.S}$$$$V2.0 the step yield [2] was 84%.

“t--Boc--Arg(Z2)--Leu--Asp(OBn)--Ser(Bn)--OBn” gave a step yield [1] of 38%.
